Assay results reported in paper doi:10.1101/818856.

How the values were obtained:
Assay in all cases: co-IP
[1] = biological target: T1, µ1B with internal YFP-tag (human) (UniProt Q9Y6Q5)
T1 sequence: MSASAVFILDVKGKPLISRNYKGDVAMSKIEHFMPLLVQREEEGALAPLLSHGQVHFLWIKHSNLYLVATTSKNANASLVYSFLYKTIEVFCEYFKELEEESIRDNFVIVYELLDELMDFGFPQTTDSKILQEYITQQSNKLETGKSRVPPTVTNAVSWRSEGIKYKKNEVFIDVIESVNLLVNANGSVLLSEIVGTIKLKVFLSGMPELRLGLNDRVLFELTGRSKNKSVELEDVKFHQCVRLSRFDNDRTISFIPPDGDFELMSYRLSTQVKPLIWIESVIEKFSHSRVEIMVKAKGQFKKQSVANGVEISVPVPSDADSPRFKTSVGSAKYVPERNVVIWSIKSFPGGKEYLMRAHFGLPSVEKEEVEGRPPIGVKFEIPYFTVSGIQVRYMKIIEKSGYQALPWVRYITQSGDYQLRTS

[2] = biological target: T2, µ1A with internal YFP-tag (mouse) (UniProt P35585)
T2 sequence: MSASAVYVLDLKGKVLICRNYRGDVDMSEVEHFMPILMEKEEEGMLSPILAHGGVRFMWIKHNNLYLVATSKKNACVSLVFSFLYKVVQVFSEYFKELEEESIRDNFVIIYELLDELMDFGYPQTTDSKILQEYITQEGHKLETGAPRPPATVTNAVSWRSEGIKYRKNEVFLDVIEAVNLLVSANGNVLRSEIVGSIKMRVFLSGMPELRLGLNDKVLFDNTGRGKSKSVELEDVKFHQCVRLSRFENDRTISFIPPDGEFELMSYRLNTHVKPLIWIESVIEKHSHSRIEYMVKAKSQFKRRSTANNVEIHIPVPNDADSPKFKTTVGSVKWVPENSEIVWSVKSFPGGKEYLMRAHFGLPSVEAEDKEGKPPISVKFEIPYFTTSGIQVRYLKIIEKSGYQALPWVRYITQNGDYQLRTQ

[3] = biological target: T1, µ1B with internal YFP-tag (human); remark: listed apart in the source
[4] = biological target: γ-adaptin (porcine (endogenous in LLC-PK1))

binding [1]: binds
Molecule: clathrin heavy chain (porcine (endogenous in LLC-PK1))

binding [2]: binds
binding [3]: binds
binding [1]: binds
Molecule: γ-adaptin (porcine (endogenous in LLC-PK1))

binding [4]: binds
B1: µ1B with internal YFP-tag (protein, UniProt Q9Y6Q5 1-423)
chain: T1 sequence

Where two headings read alike, the source gives them in different places. No constants are given. Whether binding was seen depends on the method and setting. In cells and extracts the contact can be indirect. A result given as binding can be weak or reduced; the word gives no strength. Sequences can lack the tags named with a protein. Each block holds one molecule with its values, some of them ahead of it.
